# Laboratory results from the supplement of paper PMC8728848.
# The list shows a part of the results.
# B1: PX9961M-bvu-482-23-482 (Bacteroides vulgatus) (protein)
# chain: WLDLAPSTQVDTETSINVLSDIEFTLNGIYSTMQSSDAYSGRLVYYGDVTGDDMQAVSSTKRTGNYYRFNFTKDNGPSSHWSYLYSIIQNCNLILMNVDKLSIDEDETEYKNDLKGQALAIRGMALFDLTRIFGYPYLKDNGASLGVPIVKELSTIDSKPARNTVAECYTEIISDLKNSTELLSGDFNKGKVNRWAAMTLLSRVYLYKGEYNEALTMAENAIKGAEKEGYALWTNEEYPTAWGNDASASNPGEILFEIVNLTTDSPGKESMGYLNSYNGYDDMCITCSFYQLLKKDPKDVRLKILSFDKKYYAYVNKYQPQQGENITDANIPLIRLSEAYLNAAEAAVQTGDNAKAVKYLNSIVQRANPENSVEGKTLTLENVLDERRKELVAEGHRMYDVIRNGMTVKRIDVKDSDINKTKHNTAYMEYDWNFHKILLPIPKKEMDANPNMKQNPGYVD
# How the values were obtained:
# Assay in all cases: glycan array binding signal (z-score within array); higher = stronger binding
# Details in all cases: glycan notation: IUPAC condensed, linker removed
# [1] = molecular target: Neu5Ac(a2-6)Gal(b1-4)GlcNAc(b1-2)Man(a1-3)[Neu5Ac(a2-3)Gal(b1-4)GlcNAc(b1-2)Man(a1-6)]Man(b1-4)GlcNAc(b1-4)GlcNAc
# Procedure, shortened: (§1)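 Glycan array binding is given as a within-array Z-score, which can be read as non-binding when negative. The arrays, 3228 of them, came from the Consortium for Functional Glycomics database and were retained only where the protein sequence was available. Z-scores were averaged across arrays of the same protein sequence at different concentrations or buffers and across linkers.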
# [2] = molecular target: Neu5Ac(a2-6)Gal(b1-4)GlcNAc(b1-2)Man(a1-3)[Neu5Ac(a2-6)Gal(b1-4)GlcNAc(b1-2)Man(a1-6)]Man(b1-4)GlcNAc(b1-4)GlcNAc
# Procedure, shortened: as §1
# [3] = molecular target: Neu5Ac(a2-6)Gal(b1-4)GlcNAc(b1-2)Man(a1-3)[Neu5Ac(a2-6)Gal(b1-4)GlcNAc(b1-2)Man(a1-6)]Man(b1-4)GlcNAc(b1-4)[Fuc(a1-6)]GlcNAc
# Procedure, shortened: as §1
# [4] = molecular target: Neu5Ac(a2-6)Gal(b1-4)GlcNAc(b1-2)Man(a1-6)Man(b1-4)GlcNAc(b1-4)GlcNAc
# Procedure, shortened: as §1
# [5] = molecular target: Neu5Ac(a2-6)Gal(b1-4)GlcNAc(b1-2)Man(a1-6)[Gal(b1-4)GlcNAc(b1-2)Man(a1-3)]Man(b1-4)GlcNAc(b1-4)GlcNAc
# Procedure, shortened: as §1
# [6] = molecular target: Neu5Ac(a2-6)Gal(b1-4)GlcNAc(b1-2)Man(a1-6)[GlcNAc(b1-2)Man(a1-3)]Man(b1-4)GlcNAc(b1-4)GlcNAc
# Procedure, shortened: as §1
# [7] = molecular target: Neu5Ac(a2-6)Gal(b1-4)GlcNAc(b1-2)Man(a1-6)[Man(a1-3)]Man(b1-4)GlcNAc(b1-4)GlcNAc
# Procedure, shortened: as §1
# [8] = molecular target: Neu5Ac(a2-6)Gal(b1-4)GlcNAc(b1-2)[Neu5Ac(a2-6)Gal(b1-4)GlcNAc(b1-4)]Man(a1-3)[GlcNAc(b1-4)][Neu5Ac(a2-6)Gal(b1-4)GlcNAc(b1-2)[Neu5Ac(a2-6)Gal(b1-4)GlcNAc(b1-6)]Man(a1-6)]Man(b1-4)GlcNAc(b1-4)GlcNAc
# Procedure, shortened: as §1
# [9] = molecular target: Neu5Ac(a2-6)Gal(b1-4)GlcNAc(b1-2)[Neu5Ac(a2-6)Gal(b1-4)GlcNAc(b1-4)]Man(a1-3)[GlcNAc(b1-4)][Neu5Ac(a2-6)Gal(b1-4)GlcNAc(b1-4)Man(a1-6)]Man(b1-4)GlcNAc(b1-4)GlcNAc
# Procedure, shortened: as §1
# [10] = molecular target: Neu5Ac(a2-6)Gal(b1-4)GlcNAc(b1-2)[Neu5Ac(a2-6)Gal(b1-4)GlcNAc(b1-6)]Man(a1-6)[Neu5Ac(a2-6)Gal(b1-4)GlcNAc(b1-2)Man(a1-3)][GlcNAc(b1-4)]Man(b1-4)GlcNAc(b1-4)GlcNAc
# Procedure, shortened: as §1
# [11] = molecular target: Neu5Ac(a2-6)Gal(b1-4)GlcNAc(b1-3)Gal(b1-3)GlcNAc
# Procedure, shortened: as §1
# [12] = molecular target: Neu5Ac(a2-6)Gal(b1-4)GlcNAc(b1-3)Gal(b1-4)GlcNAc
# Procedure, shortened: as §1
# [13] = molecular target: Neu5Ac(a2-6)Gal(b1-4)GlcNAc(b1-3)Gal(b1-4)GlcNAc(b1-2)Man(a1-3)[Neu5Ac(a2-6)Gal(b1-4)GlcNAc(b1-3)Gal(b1-4)GlcNAc(b1-2)Man(a1-6)]GalNAc
# Procedure, shortened: as §1
# [14] = molecular target: Neu5Ac(a2-6)Gal(b1-4)GlcNAc(b1-3)Gal(b1-4)GlcNAc(b1-3)Gal(b1-4)GlcNAc
# Procedure, shortened: as §1
# [15] = molecular target: Neu5Ac(a2-6)Gal(b1-4)GlcNAc(b1-3)Gal(b1-4)GlcNAc(b1-3)Gal(b1-4)GlcNAc(b1-2)Man(a1-3)[Neu5Ac(a2-6)Gal(b1-4)GlcNAc(b1-3)Gal(b1-4)GlcNAc(b1-3)Gal(b1-4)GlcNAc(b1-2)Man(a1-6)]GalNAc
# Procedure, shortened: as §1
# [16] = molecular target: Neu5Ac(a2-6)Gal(b1-4)GlcNAc(b1-3)Gal(b1-4)GlcNAc(b1-3)GalNAc
# Procedure, shortened: as §1
# [17] = molecular target: Neu5Ac(a2-6)Gal(b1-4)GlcNAc(b1-3)Gal(b1-4)GlcNAc(b1-3)[Neu5Ac(a2-6)Gal(b1-4)GlcNAc(b1-3)Gal(b1-4)GlcNAc(b1-6)]GalNAc
# Procedure, shortened: as §1
# [18] = molecular target: Neu5Ac(a2-6)Gal(b1-4)GlcNAc(b1-3)Gal(b1-4)GlcNAc(b1-6)[Gal(b1-3)]GalNAc
# Procedure, shortened: as §1
# [19] = molecular target: Neu5Ac(a2-6)Gal(b1-4)GlcNAc(b1-3)Gal(b1-4)[Fuc(a1-3)]GlcNAc(b1-3)Gal(b1-4)[Fuc(a1-3)]GlcNAc
# Procedure, shortened: as §1
# [20] = molecular target: Neu5Ac(a2-6)Gal(b1-4)GlcNAc(b1-3)GalNAc
# Procedure, shortened: as §1
# [21] = molecular target: Neu5Ac(a2-6)Gal(b1-4)GlcNAc(b1-3)[Neu5Ac(a2-6)Gal(b1-4)GlcNAc(b1-6)]GalNAc
# Procedure, shortened: as §1
# [22] = molecular target: Neu5Ac(a2-6)Gal(b1-4)GlcNAc(b1-6)GalNAc
# Procedure, shortened: as §1
# [23] = molecular target: Neu5Ac(a2-6)Gal(b1-4)GlcNAc(b1-6)[Gal(b1-3)GlcNAc(b1-3)]Gal(b1-4)Glc
# Procedure, shortened: as §1
# [24] = molecular target: Neu5Ac(a2-6)Gal(b1-4)GlcNAc(b1-6)[Gal(b1-3)]GalNAc
# Procedure, shortened: as §1
# [25] = molecular target: Neu5Ac(a2-6)Gal(b1-4)GlcNAc6S
# Procedure, shortened: as §1
# Neu5Ac(a2-6)GalNAc = molecular target: Neu5Ac(a2-6)GalNAc
# Procedure, shortened: as §1
# [26] = molecular target: Neu5Ac(a2-6)GalNAc(b1-4)GlcNAc
# Procedure, shortened: as §1
# [27] = molecular target: Neu5Ac(a2-6)GalNAc(b1-4)GlcNAc6S
# Procedure, shortened: as §1
# [28] = molecular target: Neu5Ac(a2-6)GlcNAc(b1-4)GlcNAc
# Procedure, shortened: as §1
# [29] = molecular target: Neu5Ac(a2-6)GlcNAc(b1-4)GlcNAc(b1-4)GlcNAc
# Procedure, shortened: as §1
binder,measurement,setting,value
B1,glycan array binding signal (z-score),[1],0.515
same,glycan array binding signal (z-score),[2],0.173
same,glycan array binding signal (z-score),[3],0.138
same,glycan array binding signal (z-score),[4],0.132
same,glycan array binding signal (z-score),[5],-0.934
same,glycan array binding signal (z-score),[6],-0.701
same,glycan array binding signal (z-score),[7],0.152
same,glycan array binding signal (z-score),[8],-0.028
same,glycan array binding signal (z-score),[9],0.169
same,glycan array binding signal (z-score),[10],0.004
same,glycan array binding signal (z-score),[11],-0.073
same,glycan array binding signal (z-score),[12],-0.225
same,glycan array binding signal (z-score),[13],-0.284
same,glycan array binding signal (z-score),[14],0.46
same,glycan array binding signal (z-score),[15],1.07
same,glycan array binding signal (z-score),[16],0.845
same,glycan array binding signal (z-score),[17],0.09
same,glycan array binding signal (z-score),[18],-0.159
same,glycan array binding signal (z-score),[19],-0.366
same,glycan array binding signal (z-score),[20],-0.573
same,glycan array binding signal (z-score),[21],-0.911
same,glycan array binding signal (z-score),[22],-0.512
same,glycan array binding signal (z-score),[23],-0.342
same,glycan array binding signal (z-score),[24],0.586
same,glycan array binding signal (z-score),[25],0.831
same,glycan array binding signal (z-score),Neu5Ac(a2-6)GalNAc,-0.811
same,glycan array binding signal (z-score),[26],-0.659
same,glycan array binding signal (z-score),[27],-0.066
same,glycan array binding signal (z-score),[28],0.077
same,glycan array binding signal (z-score),[29],-0.376

# In another format: results already given.
binder	measurement	setting	value
B1	glycan array binding signal (z-score)	[1]	0.515
same	glycan array binding signal (z-score)	[29]	-0.376
